Results as given in the supplement of paper PMC10849652.
The list shows a part of the results.

Protein sequences, listed by entry. Tags and fused reporters are not part of them. Lines headed by an entry give the natural chain unless they say otherwise; changes in a name come on top.
UniProt Q15059, whole entry, looked up: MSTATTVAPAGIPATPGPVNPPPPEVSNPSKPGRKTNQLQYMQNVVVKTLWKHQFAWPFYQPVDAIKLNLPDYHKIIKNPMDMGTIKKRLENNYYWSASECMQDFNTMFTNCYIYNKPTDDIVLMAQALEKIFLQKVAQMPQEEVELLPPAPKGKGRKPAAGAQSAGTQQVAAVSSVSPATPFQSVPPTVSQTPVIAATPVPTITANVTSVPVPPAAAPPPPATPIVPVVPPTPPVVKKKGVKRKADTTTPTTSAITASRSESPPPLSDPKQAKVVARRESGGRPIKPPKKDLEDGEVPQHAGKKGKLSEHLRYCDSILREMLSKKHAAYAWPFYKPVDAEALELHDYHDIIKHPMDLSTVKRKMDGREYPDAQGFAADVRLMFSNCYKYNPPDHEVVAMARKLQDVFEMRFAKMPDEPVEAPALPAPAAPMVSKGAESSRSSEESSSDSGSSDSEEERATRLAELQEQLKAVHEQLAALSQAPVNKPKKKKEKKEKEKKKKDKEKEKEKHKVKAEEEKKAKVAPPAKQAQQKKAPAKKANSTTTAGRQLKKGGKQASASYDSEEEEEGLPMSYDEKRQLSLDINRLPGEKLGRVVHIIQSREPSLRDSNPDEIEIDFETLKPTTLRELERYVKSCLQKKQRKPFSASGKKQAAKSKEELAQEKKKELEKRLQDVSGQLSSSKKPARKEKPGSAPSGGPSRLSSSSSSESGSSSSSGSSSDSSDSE
UniProt Q99933: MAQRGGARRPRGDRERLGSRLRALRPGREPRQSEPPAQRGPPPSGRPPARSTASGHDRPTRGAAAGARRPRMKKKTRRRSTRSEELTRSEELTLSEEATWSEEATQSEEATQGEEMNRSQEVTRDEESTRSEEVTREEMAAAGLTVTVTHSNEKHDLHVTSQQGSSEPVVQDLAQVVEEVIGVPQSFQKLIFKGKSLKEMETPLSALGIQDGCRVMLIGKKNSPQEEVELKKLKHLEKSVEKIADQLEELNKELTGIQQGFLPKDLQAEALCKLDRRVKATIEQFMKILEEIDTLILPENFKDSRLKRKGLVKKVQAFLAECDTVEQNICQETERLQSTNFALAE
UniProt O75882: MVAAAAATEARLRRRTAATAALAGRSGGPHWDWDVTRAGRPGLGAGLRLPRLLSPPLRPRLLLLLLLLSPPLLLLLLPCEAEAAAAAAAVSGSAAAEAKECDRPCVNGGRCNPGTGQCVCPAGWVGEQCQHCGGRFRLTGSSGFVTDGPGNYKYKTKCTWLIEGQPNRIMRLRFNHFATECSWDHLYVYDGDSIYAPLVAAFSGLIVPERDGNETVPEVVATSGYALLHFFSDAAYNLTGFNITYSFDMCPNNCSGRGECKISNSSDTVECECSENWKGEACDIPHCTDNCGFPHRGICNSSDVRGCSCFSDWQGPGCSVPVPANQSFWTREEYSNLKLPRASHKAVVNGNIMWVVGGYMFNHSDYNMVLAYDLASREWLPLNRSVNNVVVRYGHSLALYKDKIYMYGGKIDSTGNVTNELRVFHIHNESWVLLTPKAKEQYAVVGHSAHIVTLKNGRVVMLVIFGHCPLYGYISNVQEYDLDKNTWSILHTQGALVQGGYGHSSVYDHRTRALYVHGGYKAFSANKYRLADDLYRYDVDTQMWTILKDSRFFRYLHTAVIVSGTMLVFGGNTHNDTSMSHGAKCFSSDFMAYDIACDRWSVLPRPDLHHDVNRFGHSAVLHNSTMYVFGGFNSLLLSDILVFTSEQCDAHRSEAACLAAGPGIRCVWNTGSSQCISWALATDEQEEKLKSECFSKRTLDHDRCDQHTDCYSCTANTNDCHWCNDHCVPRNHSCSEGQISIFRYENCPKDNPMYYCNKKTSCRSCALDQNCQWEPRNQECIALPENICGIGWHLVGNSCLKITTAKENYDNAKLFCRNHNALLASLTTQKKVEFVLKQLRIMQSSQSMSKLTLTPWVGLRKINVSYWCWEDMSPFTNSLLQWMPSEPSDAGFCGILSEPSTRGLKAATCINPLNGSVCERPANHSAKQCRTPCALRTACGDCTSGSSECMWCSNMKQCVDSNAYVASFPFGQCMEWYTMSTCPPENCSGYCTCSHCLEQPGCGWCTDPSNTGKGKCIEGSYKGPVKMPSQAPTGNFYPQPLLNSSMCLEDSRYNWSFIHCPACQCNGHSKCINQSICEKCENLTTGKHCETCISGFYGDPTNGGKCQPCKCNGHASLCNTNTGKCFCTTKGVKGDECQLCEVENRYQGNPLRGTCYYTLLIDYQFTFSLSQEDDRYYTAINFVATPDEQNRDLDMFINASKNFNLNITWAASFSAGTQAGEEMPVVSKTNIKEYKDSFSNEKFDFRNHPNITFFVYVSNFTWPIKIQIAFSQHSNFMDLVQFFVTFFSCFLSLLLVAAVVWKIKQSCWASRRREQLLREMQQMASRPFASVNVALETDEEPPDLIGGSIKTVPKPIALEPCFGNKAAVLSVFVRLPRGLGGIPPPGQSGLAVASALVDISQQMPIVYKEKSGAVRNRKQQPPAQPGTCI
UniProt P51572: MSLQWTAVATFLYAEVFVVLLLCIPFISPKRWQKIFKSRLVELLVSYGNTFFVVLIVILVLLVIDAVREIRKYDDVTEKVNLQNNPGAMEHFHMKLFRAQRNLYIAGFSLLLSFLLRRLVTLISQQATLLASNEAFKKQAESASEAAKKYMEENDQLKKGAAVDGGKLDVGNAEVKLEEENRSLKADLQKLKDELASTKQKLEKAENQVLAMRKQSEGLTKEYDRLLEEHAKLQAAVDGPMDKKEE
UniProt Q6QNY0: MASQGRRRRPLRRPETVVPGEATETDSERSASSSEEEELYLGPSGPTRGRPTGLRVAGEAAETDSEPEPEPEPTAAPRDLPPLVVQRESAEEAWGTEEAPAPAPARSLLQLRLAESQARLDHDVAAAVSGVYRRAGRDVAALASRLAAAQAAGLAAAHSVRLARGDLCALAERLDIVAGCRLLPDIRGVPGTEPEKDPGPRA
UniProt Q6UW56: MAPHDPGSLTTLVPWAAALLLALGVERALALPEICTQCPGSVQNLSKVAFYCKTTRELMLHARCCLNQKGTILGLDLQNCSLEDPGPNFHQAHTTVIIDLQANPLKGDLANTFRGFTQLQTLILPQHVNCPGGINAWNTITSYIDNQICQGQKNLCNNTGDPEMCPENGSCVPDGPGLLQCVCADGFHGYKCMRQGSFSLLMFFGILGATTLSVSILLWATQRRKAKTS
UniProt Q8WWM7: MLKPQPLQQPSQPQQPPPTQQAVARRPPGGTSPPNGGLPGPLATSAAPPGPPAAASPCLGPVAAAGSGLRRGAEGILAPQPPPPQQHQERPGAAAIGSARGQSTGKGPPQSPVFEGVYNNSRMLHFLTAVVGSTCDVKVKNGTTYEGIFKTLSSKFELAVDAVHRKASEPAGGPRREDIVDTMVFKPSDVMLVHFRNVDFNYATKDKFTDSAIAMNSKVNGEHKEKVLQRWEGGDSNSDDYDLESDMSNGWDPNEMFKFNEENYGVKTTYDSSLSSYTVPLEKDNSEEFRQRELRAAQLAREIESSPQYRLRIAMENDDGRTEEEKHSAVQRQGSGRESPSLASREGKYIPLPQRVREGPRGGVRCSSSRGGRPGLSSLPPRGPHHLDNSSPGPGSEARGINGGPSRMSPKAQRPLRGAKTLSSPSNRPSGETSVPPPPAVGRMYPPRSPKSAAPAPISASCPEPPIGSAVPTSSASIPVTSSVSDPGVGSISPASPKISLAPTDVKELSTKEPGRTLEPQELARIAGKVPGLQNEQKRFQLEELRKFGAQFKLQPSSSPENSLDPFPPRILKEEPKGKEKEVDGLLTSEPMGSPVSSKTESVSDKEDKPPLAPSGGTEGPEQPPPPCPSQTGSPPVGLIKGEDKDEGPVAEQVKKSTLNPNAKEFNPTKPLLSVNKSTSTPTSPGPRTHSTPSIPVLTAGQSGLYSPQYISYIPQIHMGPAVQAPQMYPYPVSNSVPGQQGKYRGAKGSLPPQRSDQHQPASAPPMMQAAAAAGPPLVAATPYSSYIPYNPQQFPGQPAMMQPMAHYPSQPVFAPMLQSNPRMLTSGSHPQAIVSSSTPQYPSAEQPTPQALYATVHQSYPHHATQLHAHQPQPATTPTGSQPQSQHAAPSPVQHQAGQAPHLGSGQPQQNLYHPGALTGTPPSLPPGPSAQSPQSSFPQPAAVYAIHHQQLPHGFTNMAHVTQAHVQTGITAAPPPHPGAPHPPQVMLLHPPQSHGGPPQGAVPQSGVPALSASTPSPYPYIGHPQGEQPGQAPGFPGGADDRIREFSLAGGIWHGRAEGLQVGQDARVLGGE
UniProt Q9H3K6: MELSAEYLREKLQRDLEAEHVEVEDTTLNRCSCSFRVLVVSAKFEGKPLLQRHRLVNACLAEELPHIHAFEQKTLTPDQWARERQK
UniProt O43505: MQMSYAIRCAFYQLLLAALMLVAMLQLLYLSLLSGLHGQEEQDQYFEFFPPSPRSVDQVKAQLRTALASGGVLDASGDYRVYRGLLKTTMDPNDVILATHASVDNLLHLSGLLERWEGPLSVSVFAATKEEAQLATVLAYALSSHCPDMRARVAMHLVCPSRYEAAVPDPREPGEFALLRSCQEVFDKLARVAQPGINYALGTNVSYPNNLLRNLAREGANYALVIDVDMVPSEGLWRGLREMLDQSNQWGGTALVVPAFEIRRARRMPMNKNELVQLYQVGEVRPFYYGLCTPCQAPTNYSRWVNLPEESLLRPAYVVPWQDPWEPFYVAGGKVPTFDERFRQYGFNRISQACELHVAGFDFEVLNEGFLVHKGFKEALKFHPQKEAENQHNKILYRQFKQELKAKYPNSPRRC
UniProt Q9NXR7, whole entry, looked up: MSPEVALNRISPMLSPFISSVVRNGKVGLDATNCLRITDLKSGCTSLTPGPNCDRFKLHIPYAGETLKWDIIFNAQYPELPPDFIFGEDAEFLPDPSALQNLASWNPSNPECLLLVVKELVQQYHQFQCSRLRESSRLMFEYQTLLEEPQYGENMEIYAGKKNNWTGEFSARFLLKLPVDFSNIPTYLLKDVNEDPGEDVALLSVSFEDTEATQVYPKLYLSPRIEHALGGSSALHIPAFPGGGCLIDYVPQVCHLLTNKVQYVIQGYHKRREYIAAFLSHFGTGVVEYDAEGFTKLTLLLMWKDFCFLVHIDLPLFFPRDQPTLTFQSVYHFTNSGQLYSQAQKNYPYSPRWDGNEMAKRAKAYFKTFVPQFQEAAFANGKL
UniProt Q9BXH1: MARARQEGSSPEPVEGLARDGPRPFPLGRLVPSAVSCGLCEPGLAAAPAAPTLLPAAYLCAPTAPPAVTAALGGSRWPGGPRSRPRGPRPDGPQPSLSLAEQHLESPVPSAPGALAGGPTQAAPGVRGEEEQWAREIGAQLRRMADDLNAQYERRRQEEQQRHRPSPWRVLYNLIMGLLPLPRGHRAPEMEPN
UniProt O15382: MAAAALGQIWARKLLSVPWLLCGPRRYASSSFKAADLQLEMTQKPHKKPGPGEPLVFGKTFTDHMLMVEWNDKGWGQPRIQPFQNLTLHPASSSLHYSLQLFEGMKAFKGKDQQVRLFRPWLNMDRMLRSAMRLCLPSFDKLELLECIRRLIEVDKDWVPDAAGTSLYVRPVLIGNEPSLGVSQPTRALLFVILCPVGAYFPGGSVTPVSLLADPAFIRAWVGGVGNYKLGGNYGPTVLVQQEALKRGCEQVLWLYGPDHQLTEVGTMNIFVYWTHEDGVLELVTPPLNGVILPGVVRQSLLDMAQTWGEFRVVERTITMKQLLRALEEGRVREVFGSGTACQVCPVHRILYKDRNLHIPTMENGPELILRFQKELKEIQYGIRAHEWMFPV
UniProt O75934: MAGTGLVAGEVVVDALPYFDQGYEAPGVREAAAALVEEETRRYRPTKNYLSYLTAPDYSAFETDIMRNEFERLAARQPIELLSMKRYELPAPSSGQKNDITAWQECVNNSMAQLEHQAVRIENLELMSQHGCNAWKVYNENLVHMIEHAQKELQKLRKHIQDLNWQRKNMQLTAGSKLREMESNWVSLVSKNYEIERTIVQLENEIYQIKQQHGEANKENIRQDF
UniProt Q9UHQ4: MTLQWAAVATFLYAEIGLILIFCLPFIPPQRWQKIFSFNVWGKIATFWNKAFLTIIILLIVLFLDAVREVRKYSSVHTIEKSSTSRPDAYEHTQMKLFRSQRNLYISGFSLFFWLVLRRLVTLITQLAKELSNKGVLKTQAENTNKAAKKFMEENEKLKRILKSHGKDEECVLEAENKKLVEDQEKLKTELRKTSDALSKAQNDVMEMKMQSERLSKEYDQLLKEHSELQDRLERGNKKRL
UniProt Q67FW5: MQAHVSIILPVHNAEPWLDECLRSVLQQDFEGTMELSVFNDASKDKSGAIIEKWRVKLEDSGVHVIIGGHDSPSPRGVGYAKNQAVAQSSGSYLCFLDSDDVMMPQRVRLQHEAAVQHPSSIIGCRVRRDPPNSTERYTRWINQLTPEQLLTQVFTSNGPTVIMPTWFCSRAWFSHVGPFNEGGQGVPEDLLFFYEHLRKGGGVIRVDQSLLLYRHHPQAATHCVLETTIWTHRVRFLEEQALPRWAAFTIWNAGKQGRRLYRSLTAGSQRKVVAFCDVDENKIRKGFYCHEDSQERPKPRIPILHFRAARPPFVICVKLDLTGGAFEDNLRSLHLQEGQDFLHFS

Compound: Cc1ccc(NC(=O)c2ccc(CN3CC[C@H](N(C)C)C3)c(C(F)(F)F)c2)cc1Nc1nccc(-c2cncnc2)n1 [bafetinib]
Assay: log2 fold change, soluble protein after heating vs DMSO (PISA); higher = thermal stabilisation; K562 cells, 10 uM, 30 min; active = over 0.2 and 3.5 SD of the protein, either way, in both replicates (recomputed)
Outline: (§1)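 K562 cells at 2×10^6 cells/mL were given 10 μM compound for 30 min. Aliquots then went through 3 min of heating across 48°C-58°C, were pooled, and were extracted in PBS with 0.5% NP-40 at 4°C, and the supernatant after 21,000xg for 90 min was quantified by TMTpro 16plex LC-MS/MS with channel sums equalised. Thermal stability relative to control samples, from duplicates, is given as log2 fold change.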

log2 fold change, inactive:
ATR (UniProt Q13535) -0.036
BRD3 (UniProt Q15059) -0.152
BRIP1 (UniProt Q9BX63) -0.135
B2M (UniProt P61769) 0.098
BAG4 (UniProt O95429) -0.073
ATRIP (UniProt Q8WXE1) 0.032
BAG1 (UniProt Q99933) -0.026
BLOC1S4 (UniProt Q9NUP1) -0.029
BAX isoform 2 (UniProt Q07812) -0.057
ATRN (UniProt O75882) -0.006
BCAP31 isoform 2 (UniProt P51572) -0.045
BLVRA (UniProt P53004) -0.001
BPGM (UniProt P07738) -0.019
BLOC1S3 (UniProt Q6QNY0) -0.02
ATRAID isoform 3 (UniProt Q6UW56) -0.146
ATXN2L (UniProt Q8WWM7) -0.045
BOLA2 (UniProt Q9H3K6) -0.026
B4GAT1 (UniProt O43505) -0.158
BABAM2 (UniProt Q9NXR7) 0.008
BRIX1 (UniProt Q8TDN6) 0.386
BCL10 (UniProt O95999) -0.088
BROX (UniProt Q5VW32) 0.048
BBC3 (UniProt Q9BXH1) -0.199
BCL2L12 (UniProt Q9HB09) 0.006
BCAT2 (UniProt O15382) -0.034
BCKDHB (UniProt P21953) -0.012
BCAS2 (UniProt O75934) -0.071
BOP1 (UniProt Q14137) 0.031
BAK1 (UniProt Q16611) -0.098
BID isoform 2 (UniProt P55957) -0.035
BAG2 (UniProt O95816) 0.071
BCAP29 isoform 2 (UniProt Q9UHQ4) -0.159
B3GNTL1 (UniProt Q67FW5) -0.098

Compound: Cc1cccc(CC(=O)N2CCc3c2ccc(-c2cn(C)c4ncnc(N)c24)c3F)n1
Assay: as above
Outline: as §1

log2 fold change, inactive:
ATR (UniProt Q13535) -0.028
BRD3 (UniProt Q15059) -0.002
BRIP1 (UniProt Q9BX63) -0.011
B2M (UniProt P61769) 0.011
BAG4 (UniProt O95429) -0.008
ATRIP (UniProt Q8WXE1) 0.045
BAG1 (UniProt Q99933) -0.019
BLOC1S4 (UniProt Q9NUP1) -0.028
BAX isoform 2 (UniProt Q07812) -0.032
ATRN (UniProt O75882) 0.004
BCAP31 isoform 2 (UniProt P51572) -0.026
BLVRA (UniProt P53004) 0.008
BPGM (UniProt P07738) 0.001
BLOC1S3 (UniProt Q6QNY0) 0.006
ATRAID isoform 3 (UniProt Q6UW56) 0.019
ATXN2L (UniProt Q8WWM7) 0.01
BOLA2 (UniProt Q9H3K6) 0.051
B4GAT1 (UniProt O43505) 0.138
BABAM2 (UniProt Q9NXR7) -0.009
BRIX1 (UniProt Q8TDN6) -0.033
BCL10 (UniProt O95999) -0.008
BROX (UniProt Q5VW32) -0.037
BBC3 (UniProt Q9BXH1) 0.05
BCL2L12 (UniProt Q9HB09) 0.009
BCAT2 (UniProt O15382) -0.068
BCKDHB (UniProt P21953) -0.062
BCAS2 (UniProt O75934) -0.048
BOP1 (UniProt Q14137) -0.083
BAK1 (UniProt Q16611) -0.031
BID isoform 2 (UniProt P55957) -0.071
BAG2 (UniProt O95816) -0.035
BCAP29 isoform 2 (UniProt Q9UHQ4) -0.027
B3GNTL1 (UniProt Q67FW5) -0.056

Compound: Cc1cn(-c2cc(NC(=O)c3ccc(C)c(Nc4nccc(-c5cccnc5)n4)c3)cc(C(F)(F)F)c2)cn1 [nilotinib]
Assay: as above
Outline: as §1

log2 fold change, inactive:
ATR (UniProt Q13535) -0.07
BRD3 (UniProt Q15059) -0.088
BRIP1 (UniProt Q9BX63) -0.069
B2M (UniProt P61769) 0.069
BAG4 (UniProt O95429) 0.002
ATRIP (UniProt Q8WXE1) -0.09
BAG1 (UniProt Q99933) 0.015
BLOC1S4 (UniProt Q9NUP1) -0.012
BAX isoform 2 (UniProt Q07812) -0.012
ATRN (UniProt O75882) 0.027
BCAP31 isoform 2 (UniProt P51572) 0.002
BLVRA (UniProt P53004) -0.028
BPGM (UniProt P07738) 0.005
BLOC1S3 (UniProt Q6QNY0) -0.067
ATRAID isoform 3 (UniProt Q6UW56) 0.009
ATXN2L (UniProt Q8WWM7) -0.013
BOLA2 (UniProt Q9H3K6) -0.027
B4GAT1 (UniProt O43505) 0.031
BABAM2 (UniProt Q9NXR7) 0.022
BRIX1 (UniProt Q8TDN6) 0.085
BCL10 (UniProt O95999) -0.042
BROX (UniProt Q5VW32) -0.041
BBC3 (UniProt Q9BXH1) 0.025
BCL2L12 (UniProt Q9HB09) -0.117
BCAT2 (UniProt O15382) 0.016
BCKDHB (UniProt P21953) 0.134
BCAS2 (UniProt O75934) -0.001
BOP1 (UniProt Q14137) -0.028
BAK1 (UniProt Q16611) 0.038
BID isoform 2 (UniProt P55957) 0.019
BAG2 (UniProt O95816) 0.051
BCAP29 isoform 2 (UniProt Q9UHQ4) -0.002
B3GNTL1 (UniProt Q67FW5) 0.029
